In patent US20200362024A1 (IMPERIAL INNOVATIONS LIMITED, priority 2009, published 2020):
Plain letter strings leave the end groups untold.

Assay: peptide made by a vendor
Conditions: whole synthesis

RSFSTFDKDTDSAITNCALSYKGAFWYRN
outcome: The facility was unable to synthesize peptide 7
